# According to the supplement of paper PMC8047044:
# Counter-ions that a name gives are not always drawn. ± gives the standard deviation of the averaged measurements. The list shows a part of the results. Repeats are few or missing, and single values can be far off.
# Tested on: Neuro-2a
# Assay: neurite formation score, plate-normalized to DMSO control mean 5.04 (score (0-8 scale)); higher = more or longer neurites
# Settings: 10 µM
row,Compound,neurite formation score
1,O=C(Nc1nc2cccc(-c3ccc(CN4CCS(=O)(=O)CC4)cc3)n2n1)C1CC1,4.59 ± 1.6
2,Oc1cccc(-c2nc(N3CCOCC3)c3oc4ncccc4c3n2)c1 [PI-103 Hydrochloride],5.41
3,N#Cc1cccc(-c2c[nH]c3ncnc(N4CCOCC4)c23)c1,5.86
4,CC(C)c1cc(CNc2nc(Nc3cc(C4CC4)[nH]n3)cc(N3CCN(C)CC3)n2)on1,0.41
5,CCS(=O)(=O)N1CC(CC#N)(n2cc(-c3ncnc4[nH]ccc34)cn2)C1,5.08
6,FC(F)(F)c1ccc(/C=C/c2nc(COc3ccc(CCCCn4ccnn4)cc3)co2)cc1 [Mubritinib (TAK 165)],3.42
7,COc1cc(OC)c(/C=C/S(=O)(=O)Cc2ccc(OC)c(NCC(=O)O)c2)c(OC)c1,0.209
8,Cc1[nH]c(/C=C2\C(=O)Nc3ccc(S(=O)(=O)N(C)c4cccc(Cl)c4)cc32)c(C)c1C(=O)N1CCN(C)CC1,1.54
9,CN1CCN(c2cccc(Nc3nc4c(-c5ccc(S(C)(=O)=O)cc5)cccn4n3)c2)CC1,4.08
10,FC(F)(F)c1ccc(CNc2ccc(Cc3c[nH]c4ncc(Cl)cc34)cn2)cn1 [Pexidartinib (PLX3397)],3.86
11,CC(C)CC(=O)Nc1n[nH]c2c1CN(C(=O)C1CCN(C)CC1)C2(C)C,4.19
12,Cc1nc(N)sc1-c1ccnc(Nc2ccc(N3CCOCC3)cc2)n1,4.08
13,Cc1ccc(NC(=O)c2ccc(CN3CCN(C)CC3)cc2)cc1Nc1nccc(-c2cccnc2)n1 [Imatinib (STI571)],5.19
14,N=C(N)NCCC(=O)O [3-Guanidinopropionic Acid],5.19
15,CCN(CCCOc1ccc2c(Nc3cc(CC(=O)Nc4cccc(F)c4)[nH]n3)ncnc2c1)CCOP(=O)(O)O,5.21
16,C[C@H](Nc1ncnc2nc[nH]c12)c1cc2cccc(Cl)c2c(=O)n1-c1ccccc1,3.54
17,CC(C)n1nc(-c2ccc3oc(N)nc3c2)c2c(N)ncnc21,4.09
18,Cc1cnc(NC(=O)Nc2cc(Br)c(C)cc2OC[C@@H]2CNCCO2)cn1,1.76
19,CC(C)(C)c1nc2c3cc[nH]c(=O)c3c3cc(F)ccc3c2[nH]1 [Pyridone 6],4.08
20,CCN(CCO)CCCOc1ccc2c(Nc3cc(CC(=O)Nc4cccc(F)c4)[nH]n3)ncnc2c1 [Barasertib (AZD1152-HQPA)],4.08

row,Compound,neurite formation score
1,O=C(/C=C/c1ccc(O)c(O)c1)c1ccc(O)cc1O [Butein],3.54
2,CNc1nc(-c2ccc3c(N)n[nH]c3c2)cc(N2C[C@@H](C(=O)NC3CCCCC3)CC[C@H]2C)n1,4.86
3,Cc1cccc(CC(=O)N2CCc3c2ccc(-c2cn(C)c4ncnc(N)c24)c3F)n1,3.86
4,CC1=CC(=O)C(C(C)C)=C/C1=N/OC(=O)c1ccccc1C [Poloxin],0.41
5,CN(C)Cc1cccc(N=C(c2ccccc2)c2c(O)[nH]c3cc(C(N)=O)ccc23)c1,4.52
6,COc1cc2nccc(Oc3ccc(NC(=O)C4(C(=O)Nc5ccc(F)cc5)CC4)cc3)c2cc1OC,1.21
7,Cn1cc(-c2ccc3ncc(Cc4ccc5ncccc5c4)n3n2)cn1,3.43
8,CNCc1ccc(-c2cc(-c3nc(-c4ccc(S(=O)(=O)C(C)C)cc4)cnc3N)on2)cc1,1.43
9,O=C1NCCCc2c1oc1ccc(O)cc21,5.43
10,Cc1ccc(NC(=O)c2ccc(CN3CCN(C)CC3)cc2)cc1Nc1nc(-c2cccnc2)cs1 [Masitinib (AB1010)],3.54
11,CNC(=O)c1cc(COc2nnc(Nc3ccc(Cl)cc3)c3ccoc23)ccn1 [Telatinib (BAY 57-9352)],4.76
12,C=CC(=O)Nc1cccc(Nc2nc(Nc3ccc(NC4CN(CCF)C4)cc3OC)ncc2C(F)(F)F)c1,4.52
13,Cc1ccc2c(Nc3ccc(Cl)cc3)nccc2c1Nc1ncccc1-c1ncnc2nc[nH]c12 [B-Raf inhibitor 1],0.0903
14,CC(C)n1nc(-c2cc3cc(O)ccc3[nH]2)c2c(N)ncnc21,2.42
15,COc1ccc(C(=O)Nc2sc3c(c2C(N)=O)CCCC3)cc1OC,4.88
16,NC(=O)Nc1sc(-c2ccc(F)cc2)cc1C(N)=O,2.41
17,CS(=O)(=O)N1CCC(NC(=O)c2[nH]ncc2NC(=O)c2c(Cl)cccc2Cl)CC1,3.42
18,O=C(O)c1ccc(Nc2ncc3c(n2)-c2ccc(Cl)cc2C(c2c(F)cccc2F)=NC3)cc1,0.757
19,CCOc1cc2ncc(C#N)c(Nc3ccc(F)c(Cl)c3)c2cc1NC(=O)/C=C/CN(C)C [Pelitinib (EKB-569)],0.543

# Retrieved one by one from the list above:
row,Compound,neurite formation score
8,Cc1[nH]c(/C=C2\C(=O)Nc3ccc(S(=O)(=O)N(C)c4cccc(Cl)c4)cc32)c(C)c1C(=O)N1CCN(C)CC1,1.54
14,N=C(N)NCCC(=O)O [3-Guanidinopropionic Acid],5.19
3,N#Cc1cccc(-c2c[nH]c3ncnc(N4CCOCC4)c23)c1,5.86
